Weaker means in comparison with the reference protein, sequence or condition of that experiment. Tags and fusion partners may be left off the protein sequences shown. For some of these results: For at least one entry, the source does not settle the construct or the ends of the probe.

The target in data set [1] is T1, MBP-AUNIP (UniProt Q9H7T9).
T1 sequence (looked up, limits assumed): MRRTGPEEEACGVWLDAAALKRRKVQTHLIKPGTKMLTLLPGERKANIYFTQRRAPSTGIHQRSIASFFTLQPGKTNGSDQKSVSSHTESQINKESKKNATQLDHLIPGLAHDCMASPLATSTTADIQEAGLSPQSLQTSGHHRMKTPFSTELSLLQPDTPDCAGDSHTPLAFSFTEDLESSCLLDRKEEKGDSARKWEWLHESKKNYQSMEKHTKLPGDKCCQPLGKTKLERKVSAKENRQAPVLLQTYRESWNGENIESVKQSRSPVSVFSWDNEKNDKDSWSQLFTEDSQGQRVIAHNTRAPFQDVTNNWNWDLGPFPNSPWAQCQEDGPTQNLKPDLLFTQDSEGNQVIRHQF
Kind of data set: EMSA. To be noted: 10 mM MgCl2, 20 nM biotin-DNA, 0-200 nM protein, 1x LightShift binding buffer with 10 mM MgCl2, 2.5% glycerol, 0.05% NP-40, 20 min, room temperature, 10% native PAGE, recombinant protein.

For data set [2], the target named is T2, MBP-AUNIP 21-70 (UniProt Q9H7T9).
T2 sequence (looked up): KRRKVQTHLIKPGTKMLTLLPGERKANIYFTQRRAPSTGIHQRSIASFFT
Kind of data set: EMSA. To be noted: 10 mM MgCl2, up to 200 nM protein; 20 nM biotin-DNA, 0-200 nM protein, 1x LightShift binding buffer with 10 mM MgCl2, 2.5% glycerol, 0.05% NP-40, 20 min, room temperature; 10% native PAGE; recombinant protein; residues 21-70; label: 5'-biotin on oligo 1. (A gel shift assay detects complexes by their altered migration in electrophoresis.)

Regarding “GACGCTGCCGAATTCTACCAGTGCCTTGCTAGGACATCTTTGCCCACCTGCAGGTTCAC [ssDNA (oligo 1 presumed)]”, the binding result in data set [1] (label: 5'-biotin, single-stranded DNA) is “binds more weakly”.
In the case of “GACGCTGCCGAATTCTACCAGTGCCTTGCTAGGACATCTTTGCCCACCTGCAGGTTCAC / ATAGTCGGATCCTCTAGACAGCTCCATGTAGCAAGGCACTGGTAGAATTCGGCAGCGTC [splayed arm]”, the binding result in data set [2] is “binds more weakly”.
On to “GACGCTGCCGAATTCTACCAGTGCCTTGCTAGGACATCTTTGCCCACCTGCAGGTTCAC / TAGCAAGGCACTGGTAGAATTCGGCAGCGTC [3' tail DNA]”, for which the binding result in data set [1] (label: 5'-biotin on oligo 1) is listed as “binds more weakly”.
As to “GACGCTGCCGAATTCTACCAGTGCCTTGCTAGGACATCTTTGCCCACCTGCAGGTTCAC (double strand) [blunt-ended dsDNA]”, the binding result in data set [1] (label: 5'-biotin on oligo 1) is given as “binds more weakly”.

Source of the values: article PMC5645412, “AUNIP/C1orf135 directs DNA double-strand breaks towards the homologous recombination repair pathway” (Nature Communications, 2017).
